In the supplement of paper PMC8728848:
Some of the results follow.

Experiments:
Experiment in all cases: glycan array binding signal (z-score within array); higher = stronger binding
Settings in all cases: glycan notation: IUPAC condensed, linker removed
[1] = molecular target: Neu5Ac(a2-3)Gal(b1-4)GlcNAc(b1-2)Man(a1-3)[Neu5Ac(a2-6)Gal(b1-4)GlcNAc(b1-2)Man(a1-6)]Man(b1-4)GlcNAc(b1-4)GlcNAc
Summary of the method: (§1)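 From the Consortium for Functional Glycomics database, 3228 arrays were curated, keeping only those whose protein sequence was available. Binding is given as a within-array Z-score averaged across arrays sharing a protein sequence and across linkers. Negative Z-scores can be read as non-binding.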

[2] = molecular target: Neu5Ac(a2-3)Gal(b1-4)GlcNAc(b1-2)[Neu5Ac(a2-3)Gal(b1-4)GlcNAc(b1-4)]Man(a1-3)[GlcNAc(b1-4)][Neu5Ac(a2-3)Gal(b1-4)GlcNAc(b1-2)[Neu5Ac(a2-3)Gal(b1-4)GlcNAc(b1-6)]Man(a1-6)]Man(b1-4)GlcNAc(b1-4)GlcNAc
Summary of the method: as §1

[3] = molecular target: Neu5Ac(a2-3)Gal(b1-4)GlcNAc(b1-2)[Neu5Ac(a2-3)Gal(b1-4)GlcNAc(b1-4)]Man(a1-3)[GlcNAc(b1-4)][Neu5Ac(a2-3)Gal(b1-4)GlcNAc(b1-4)Man(a1-6)]Man(b1-4)GlcNAc(b1-4)GlcNAc
Summary of the method: as §1

[4] = molecular target: Neu5Ac(a2-3)Gal(b1-4)GlcNAc(b1-2)[Neu5Ac(a2-3)Gal(b1-4)GlcNAc(b1-6)]Man(a1-6)[Neu5Ac(a2-3)Gal(b1-4)GlcNAc(b1-2)Man(a1-3)][GlcNAc(b1-4)]Man(b1-4)GlcNAc(b1-4)GlcNAc
Summary of the method: as §1

[5] = molecular target: Neu5Ac(a2-3)Gal(b1-4)GlcNAc(b1-3)Gal
Summary of the method: as §1

[6] = molecular target: Neu5Ac(a2-3)Gal(b1-4)GlcNAc(b1-3)Gal(b1-3)GlcNAc
Summary of the method: as §1

[7] = molecular target: Neu5Ac(a2-3)Gal(b1-4)GlcNAc(b1-3)Gal(b1-4)GlcNAc
Summary of the method: as §1

[8] = molecular target: Neu5Ac(a2-3)Gal(b1-4)GlcNAc(b1-3)Gal(b1-4)GlcNAc(b1-2)Man(a1-3)[Neu5Ac(a2-3)Gal(b1-4)GlcNAc(b1-3)Gal(b1-4)GlcNAc(b1-2)Man(a1-6)]Man(b1-4)GlcNAc(b1-4)GlcNAc
Summary of the method: as §1

[9] = molecular target: Neu5Ac(a2-3)Gal(b1-4)GlcNAc(b1-3)Gal(b1-4)GlcNAc(b1-3)Gal(b1-4)GlcNAc
Summary of the method: as §1

[10] = molecular target: Neu5Ac(a2-3)Gal(b1-4)GlcNAc(b1-3)Gal(b1-4)GlcNAc(b1-3)Gal(b1-4)GlcNAc(b1-2)Man(a1-3)[Neu5Ac(a2-3)Gal(b1-4)GlcNAc(b1-3)Gal(b1-4)GlcNAc(b1-3)Gal(b1-4)GlcNAc(b1-2)Man(a1-6)]GalNAc
Summary of the method: as §1

[11] = molecular target: Neu5Ac(a2-3)Gal(b1-4)GlcNAc(b1-3)Gal(b1-4)GlcNAc(b1-3)GalNAc
Summary of the method: as §1

[12] = molecular target: Neu5Ac(a2-3)Gal(b1-4)GlcNAc(b1-3)Gal(b1-4)GlcNAc(b1-3)[Neu5Ac(a2-3)Gal(b1-4)GlcNAc(b1-3)Gal(b1-4)GlcNAc(b1-6)]GalNAc
Summary of the method: as §1

[13] = molecular target: Neu5Ac(a2-3)Gal(b1-4)GlcNAc(b1-3)Gal(b1-4)GlcNAc(b1-6)[Gal(b1-3)]GalNAc
Summary of the method: as §1

[14] = molecular target: Neu5Ac(a2-3)Gal(b1-4)GlcNAc(b1-3)Gal(b1-4)[Fuc(a1-3)]GlcNAc
Summary of the method: as §1

[15] = molecular target: Neu5Ac(a2-3)Gal(b1-4)GlcNAc(b1-3)GalNAc
Summary of the method: as §1

[16] = molecular target: Neu5Ac(a2-3)Gal(b1-4)GlcNAc(b1-3)[Neu5Ac(a2-3)Gal(b1-4)GlcNAc(b1-6)]GalNAc
Summary of the method: as §1

[17] = molecular target: Neu5Ac(a2-3)Gal(b1-4)GlcNAc(b1-6)GalNAc
Summary of the method: as §1

[18] = molecular target: Neu5Ac(a2-3)Gal(b1-4)GlcNAc(b1-6)[Gal(b1-3)]GalNAc
Summary of the method: as §1

[19] = molecular target: Neu5Ac(a2-3)Gal(b1-4)GlcNAc(b1-6)[Neu5Ac(a2-3)Gal(b1-3)]GalNAc
Summary of the method: as §1

[20] = molecular target: Neu5Ac(a2-3)Gal(b1-4)GlcNAc6S
Summary of the method: as §1

[21] = molecular target: Neu5Ac(a2-3)Gal(b1-4)[Fuc(a1-3)]GlcNAc
Summary of the method: as §1

[22] = molecular target: Neu5Ac(a2-3)Gal(b1-4)[Fuc(a1-3)]GlcNAc(b1-2)Man
Summary of the method: as §1

[23] = molecular target: Neu5Ac(a2-3)Gal(b1-4)[Fuc(a1-3)]GlcNAc(b1-3)Gal
Summary of the method: as §1

[24] = molecular target: Neu5Ac(a2-3)Gal(b1-4)[Fuc(a1-3)]GlcNAc(b1-3)Gal(b1-4)GlcNAc
Summary of the method: as §1

[25] = molecular target: Neu5Ac(a2-3)Gal(b1-4)[Fuc(a1-3)]GlcNAc(b1-3)Gal(b1-4)[Fuc(a1-3)]GlcNAc(b1-3)Gal(b1-4)[Fuc(a1-3)]GlcNAc
Summary of the method: as §1

[26] = molecular target: Neu5Ac(a2-3)Gal(b1-4)[Fuc(a1-3)]GlcNAc(b1-3)GalNAc
Summary of the method: as §1

[27] = molecular target: Neu5Ac(a2-3)Gal(b1-4)[Fuc(a1-3)]GlcNAc(b1-6)[Gal(b1-3)]GalNAc
Summary of the method: as §1

[28] = molecular target: Neu5Ac(a2-3)Gal(b1-4)[Fuc(a1-3)]GlcNAc(b1-6)[Neu5Ac(a2-3)Gal(b1-3)]GalNAc
Summary of the method: as §1

[29] = molecular target: Neu5Ac(a2-3)Gal(b1-4)[Fuc(a1-3)]GlcNAc6S
Summary of the method: as §1

[30] = molecular target: Neu5Ac(a2-3)Gal6S(b1-4)GlcNAc
Summary of the method: as §1

[31] = molecular target: Neu5Ac(a2-3)Gal6S(b1-4)[Fuc(a1-3)]GlcNAc
Summary of the method: as §1

Neu5Ac(a2-3)GalNAc = molecular target: Neu5Ac(a2-3)GalNAc
Summary of the method: as §1

[32] = molecular target: Neu5Ac(a2-3)GalNAc(b1-4)GlcNAc
Summary of the method: as §1

[33] = molecular target: Neu5Ac(a2-3)[GalNAc(b1-4)]Gal(b1-4)Glc
Summary of the method: as §1

[34] = molecular target: Neu5Ac(a2-3)[GalNAc(b1-4)]Gal(b1-4)GlcNAc
Summary of the method: as §1

[35] = molecular target: Neu5Ac(a2-3)[GalNAc(b1-4)]Gal(b1-4)GlcNAc(b1-3)GalNAc
Summary of the method: as §1

B1: BabA (Helicobacter pylori), O52269_HELPY (protein)
chain: AEDDGFYMSAGYQIGEAAQMVKNTKGIQELSDNYENLSNLLTRYSTLNTLIKLSADPSAVNAARENLGASAKNLIGDTKNSPAYQAVLLAINAAVGFWNVVGYVTQCGGNANGQKSTSSTTIFNNEPGYRSTSITCSLNGHMPGYYGPMSIENFKKLNEAYQILQTALKNGLPALKENNGTVNVTYSYTCSGEGNDNCSLQTTGVTNQNNGTKTETQTIDGKSVTTTISSKVVDSQ
glycan array binding signal (z-score) [1]: 0.431
glycan array binding signal (z-score) [2]: -0.646
glycan array binding signal (z-score) [3]: -0.646
glycan array binding signal (z-score) [4]: 0.617
glycan array binding signal (z-score) [5]: -0.5
glycan array binding signal (z-score) [6]: -1.01
glycan array binding signal (z-score) [7]: -0.291
glycan array binding signal (z-score) [8]: 0.517
glycan array binding signal (z-score) [9]: -1.16
glycan array binding signal (z-score) [10]: 9.34
glycan array binding signal (z-score) [11]: -0.6
glycan array binding signal (z-score) [12]: 0.572
glycan array binding signal (z-score) [13]: -0.482
glycan array binding signal (z-score) [14]: -0.639
glycan array binding signal (z-score) [15]: 0.167
glycan array binding signal (z-score) [16]: -0.219
glycan array binding signal (z-score) [17]: -0.546
glycan array binding signal (z-score) [18]: 1.93
glycan array binding signal (z-score) [19]: -0.584
glycan array binding signal (z-score) [20]: 0.617
glycan array binding signal (z-score) [21]: -0.547
glycan array binding signal (z-score) [22]: -0.682
glycan array binding signal (z-score) [23]: -1.1
glycan array binding signal (z-score) [24]: -0.124
glycan array binding signal (z-score) [25]: -0.088
glycan array binding signal (z-score) [26]: 0.626
glycan array binding signal (z-score) [27]: 0.425
glycan array binding signal (z-score) [28]: 1.06
glycan array binding signal (z-score) [29]: -0.377
glycan array binding signal (z-score) [30]: 0.903
glycan array binding signal (z-score) [31]: -0.093
glycan array binding signal (z-score) (Neu5Ac(a2-3)GalNAc): 0.285
glycan array binding signal (z-score) [32]: 0.215
glycan array binding signal (z-score) [33]: -0.398
glycan array binding signal (z-score) [34]: -0.627
glycan array binding signal (z-score) [35]: -0.255
